From PubChem BioAssay AID2284182 (EPA ToxCast)
Listed are the inconclusive results; actives and inactives stand elsewhere. Rule for the calls: active = hit-call score of the fitted dose curve at least 0.9, where 1 is the maximum; inconclusive = response in the unintended direction; inactive = score below 0.9. Potencies of inconclusive entries are doubtful fits and often do not repeat.

By UniProt entry, the sequences of proteins in these tests, tags left out.
UniProt P34969, whole entry, looked up: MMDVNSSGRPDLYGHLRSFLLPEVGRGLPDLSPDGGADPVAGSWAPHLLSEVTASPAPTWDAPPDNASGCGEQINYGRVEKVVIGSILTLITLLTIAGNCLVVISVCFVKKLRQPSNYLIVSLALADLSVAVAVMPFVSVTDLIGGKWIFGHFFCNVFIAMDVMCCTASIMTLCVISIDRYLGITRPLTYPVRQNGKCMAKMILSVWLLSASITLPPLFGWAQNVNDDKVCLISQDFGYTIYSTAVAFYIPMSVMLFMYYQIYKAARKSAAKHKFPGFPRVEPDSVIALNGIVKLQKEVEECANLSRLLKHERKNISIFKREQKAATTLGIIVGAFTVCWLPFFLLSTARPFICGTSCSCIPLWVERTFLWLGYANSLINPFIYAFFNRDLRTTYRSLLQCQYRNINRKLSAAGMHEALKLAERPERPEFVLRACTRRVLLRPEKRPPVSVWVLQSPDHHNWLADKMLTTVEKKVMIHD

Target: human Serotonin Receptor 5-HT7 Agonism, HTR7 (gene 3363) (UniProt P34969)
Assay: ERF_FR_GPCR_hHTR7: Eurofins (ERF) G Protein-Coupled Receptor (GPCR) Radioligand Binding LeadHunter Assay for human Serotonin Receptor 5-HT7 Agonism
Procedure: ERF_FR_GPCR_hHTR7 is a biochemical, single-readout assay that uses extracted gene-proteins in a cell-free assay. Measurements were taken 2 hour after chemical dosing in a 96-well plate. See 5-HT7 Human Serotonin GPCR Binding (Agonist Radioligand) Assay, Cerep.ERF_FR_GPCR_hHTR7 is an assay component calculated from the ERF_FR_GPCR_hHTR7 assay. It is designed to measure radioligand binding using a type of binding reporter as detected by scintillation counting with radiometry technology.Data from the assay component ERF_FR_GPCR_hHTR7 was analyzed at the assay endpoint, ERF_FR_GPCR_hHTR7, in the positive analysis fitting direction relative to DMSO as the negative control and baseline of activity. Using a type of binding reporter, gain-of-signal activity can be used to understand changes in binding as they relate to gene HTR7. To generalize the intended target to other relatable targets, this assay endpoint is annotated to the gpcr intended target family, where the subfamily is serotonin.
Human cells are incubated for 120 minutes at room tempreture with [3H]LSD ligand (2.3 nM) and serotonin as control inhibitor. Test Sample Requirements: Minimum for 1) Screen: 60 ul of 10 mM stock -OR- 1 mg (pre-weighed) for 10 uM final testing. 2) Dose Response: 90 ul of 10 mM stock -OR- 1 mg (pre-weighed) for a top concentration at 10 uM.

SMILES	AC50
COc1cc(CCC(=O)CC(=O)CCc2ccc(O)c(OC)c2)ccc1O	inconclusive: 992 nM
